Values of other authors as cited in US5424185A, “Human high-affinity neurotransmitter uptake system” (Baylor College of Medicine, priority 1990, dated 1995).

Legend:
[1] = system: Cultured Astrocytes (rat); conditions: read-out: Representative IC50, Cultured Astrocytes (rat); literature values; cited from earlier work
[2] = system: Rat Synaptosomes (Purified); conditions: read-out: Representative IC50, Rat Synaptosomes (Purified); literature value; cited from earlier work
Rat Synaptosomes = conditions: literature values; read-out: Representative IC50, Rat Synaptosomes; cited from earlier work

| SMILES | IC50 [1] [nM] | IC50 [2] [nM] | IC50 (Rat Synaptosomes) [nM] |
| --- | --- | --- | --- |
| CNCCC(Oc1ccc(C(F)(F)F)cc1)c1ccccc1 (stereo not shown) [Fluoxetine, fluoxetine] | 23 | 290 |  |
| CN1CCN2c3ccccc3Cc3ccccc3C2C1 (stereo not shown) [Mianserin, mianserin] | 4900 |  | 8000 |
